Experimental data from US20250326817A1 (LA JOLLA INSTITUTE FOR IMMUNOLOGY, published 2025).
Substitutions are numbered along the chain they refer to. In names and notes the source's numbering stands. No constants are given. Whether binding was seen depends on the method and setting. Some entries that bind do so weakly or less than the wild type. Each block holds one binder with its values, some of them ahead of it.

By UniProt entry, the sequences of proteins in these tests, tags left out. Residues count along the entry.
UniProt Q7TSA3, residues 30-183: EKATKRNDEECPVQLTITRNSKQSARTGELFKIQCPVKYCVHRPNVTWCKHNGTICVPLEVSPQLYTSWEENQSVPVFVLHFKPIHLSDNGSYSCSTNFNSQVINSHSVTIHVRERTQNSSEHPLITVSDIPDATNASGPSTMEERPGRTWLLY

Molecular target: mouse BTLA, soluble protein (analyte of the Octet assay) (mouse) (UniProt Q7TSA3)
Assay: cell-protein flow cytometry (mHVEM-mCherry cells + mBTLA-His/anti-His green)

B2: A76D_H86D_L90D (receptor)
chain: QPSCRQEEFLVGDECCPMCNPGYHVKQVCSEHTGTVCDPCPPQTYTADANGDSKCLPCGVCDPDMGLLTWQECSSWKDTVCRCIPGYFCENQDGSHCSTCLQHTTCPPGQRVEKRGTHDQDTVCADCLTGTFSLGGTQEECLPWTNCSAFQQEVRRGTNSTDTTCSSQVVYYVVSILLPLVIVGAGIAGFLICTRRHLHTSSVAKELEPFQEQQENTIRFPVTEVGFAETEEETASN
notes: on HEK293 FreeStyle cells; also called mHVEM A76D-H86D-L90D; not shown: mCherry fused at the C-terminus (pmCherry-N1 vector)
- binding: binds

B3: H86D-L90D (receptor)
chain: B2 chain with D38A
notes: on HEK293 FreeStyle cells; also called mHVEM H86D-L90D; not shown: mCherry reporter (and any vector linker) fused at the cytoplasmic C-terminus (pmCherry-N1)
- binding: binds

B4: H86A-L90A (receptor)
chain: B2 chain with D38A, D48A, D52A
notes: on HEK293 FreeStyle cells; also called mHVEM H86A-L90A; not shown: mCherry reporter (and any vector linker) fused at the cytoplasmic C-terminus (pmCherry-N1)
- binding: binds

B6: H86R-L90A (receptor)
chain: B2 chain with D38A, D48R, D52A
notes: on HEK293 FreeStyle cells; also called mHVEM H86R-L90A; not shown: mCherry reporter (and any vector linker) fused at the cytoplasmic C-terminus (pmCherry-N1)
- binding: binds

Next, values leading:

- binding: binds
B1: A76D_H86D_L90A (receptor)
chain: B2 chain with D52A
notes: on HEK293 FreeStyle cells; also called mHVEM A76D-H86D-L90A; not shown: mCherry fused at the C-terminus (pmCherry-N1 vector) and any vector linker

- binding: binds
B5: H86D-L90R (receptor)
chain: B2 chain with D38A, D52R
notes: on HEK293 FreeStyle cells; also called mHVEM H86D-L90R; not shown: mCherry reporter (and any vector linker) fused at the cytoplasmic C-terminus (pmCherry-N1)
